Common to all, as to experiment: affinity purification with mass spectrometry; TAP of baits TAP-tagged at their genes from S. pombe extracts; eluates on 6-18% gels, Coomassie, bands and slices identified by MALDI peptide mapping and LC-MS/MS; common background removed, A-index cut-off 1.75
The target of experiment [1] is Tra1 (S. pombe) (S. pombe) (UniProt Q9HFE8).
Experiment [2] concerns the target T1, YAF9 (S. pombe) (S. pombe) (UniProt Q10319).
T1 sequence: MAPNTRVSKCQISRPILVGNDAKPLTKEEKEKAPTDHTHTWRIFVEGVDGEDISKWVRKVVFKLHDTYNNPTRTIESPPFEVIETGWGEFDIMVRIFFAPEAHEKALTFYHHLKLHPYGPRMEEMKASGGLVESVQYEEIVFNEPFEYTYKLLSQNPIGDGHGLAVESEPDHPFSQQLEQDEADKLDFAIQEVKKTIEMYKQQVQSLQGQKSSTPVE

Sequences of proteins named here, by UniProt entry; tags and fusion partners are left off.
UniProt Q9HFE8: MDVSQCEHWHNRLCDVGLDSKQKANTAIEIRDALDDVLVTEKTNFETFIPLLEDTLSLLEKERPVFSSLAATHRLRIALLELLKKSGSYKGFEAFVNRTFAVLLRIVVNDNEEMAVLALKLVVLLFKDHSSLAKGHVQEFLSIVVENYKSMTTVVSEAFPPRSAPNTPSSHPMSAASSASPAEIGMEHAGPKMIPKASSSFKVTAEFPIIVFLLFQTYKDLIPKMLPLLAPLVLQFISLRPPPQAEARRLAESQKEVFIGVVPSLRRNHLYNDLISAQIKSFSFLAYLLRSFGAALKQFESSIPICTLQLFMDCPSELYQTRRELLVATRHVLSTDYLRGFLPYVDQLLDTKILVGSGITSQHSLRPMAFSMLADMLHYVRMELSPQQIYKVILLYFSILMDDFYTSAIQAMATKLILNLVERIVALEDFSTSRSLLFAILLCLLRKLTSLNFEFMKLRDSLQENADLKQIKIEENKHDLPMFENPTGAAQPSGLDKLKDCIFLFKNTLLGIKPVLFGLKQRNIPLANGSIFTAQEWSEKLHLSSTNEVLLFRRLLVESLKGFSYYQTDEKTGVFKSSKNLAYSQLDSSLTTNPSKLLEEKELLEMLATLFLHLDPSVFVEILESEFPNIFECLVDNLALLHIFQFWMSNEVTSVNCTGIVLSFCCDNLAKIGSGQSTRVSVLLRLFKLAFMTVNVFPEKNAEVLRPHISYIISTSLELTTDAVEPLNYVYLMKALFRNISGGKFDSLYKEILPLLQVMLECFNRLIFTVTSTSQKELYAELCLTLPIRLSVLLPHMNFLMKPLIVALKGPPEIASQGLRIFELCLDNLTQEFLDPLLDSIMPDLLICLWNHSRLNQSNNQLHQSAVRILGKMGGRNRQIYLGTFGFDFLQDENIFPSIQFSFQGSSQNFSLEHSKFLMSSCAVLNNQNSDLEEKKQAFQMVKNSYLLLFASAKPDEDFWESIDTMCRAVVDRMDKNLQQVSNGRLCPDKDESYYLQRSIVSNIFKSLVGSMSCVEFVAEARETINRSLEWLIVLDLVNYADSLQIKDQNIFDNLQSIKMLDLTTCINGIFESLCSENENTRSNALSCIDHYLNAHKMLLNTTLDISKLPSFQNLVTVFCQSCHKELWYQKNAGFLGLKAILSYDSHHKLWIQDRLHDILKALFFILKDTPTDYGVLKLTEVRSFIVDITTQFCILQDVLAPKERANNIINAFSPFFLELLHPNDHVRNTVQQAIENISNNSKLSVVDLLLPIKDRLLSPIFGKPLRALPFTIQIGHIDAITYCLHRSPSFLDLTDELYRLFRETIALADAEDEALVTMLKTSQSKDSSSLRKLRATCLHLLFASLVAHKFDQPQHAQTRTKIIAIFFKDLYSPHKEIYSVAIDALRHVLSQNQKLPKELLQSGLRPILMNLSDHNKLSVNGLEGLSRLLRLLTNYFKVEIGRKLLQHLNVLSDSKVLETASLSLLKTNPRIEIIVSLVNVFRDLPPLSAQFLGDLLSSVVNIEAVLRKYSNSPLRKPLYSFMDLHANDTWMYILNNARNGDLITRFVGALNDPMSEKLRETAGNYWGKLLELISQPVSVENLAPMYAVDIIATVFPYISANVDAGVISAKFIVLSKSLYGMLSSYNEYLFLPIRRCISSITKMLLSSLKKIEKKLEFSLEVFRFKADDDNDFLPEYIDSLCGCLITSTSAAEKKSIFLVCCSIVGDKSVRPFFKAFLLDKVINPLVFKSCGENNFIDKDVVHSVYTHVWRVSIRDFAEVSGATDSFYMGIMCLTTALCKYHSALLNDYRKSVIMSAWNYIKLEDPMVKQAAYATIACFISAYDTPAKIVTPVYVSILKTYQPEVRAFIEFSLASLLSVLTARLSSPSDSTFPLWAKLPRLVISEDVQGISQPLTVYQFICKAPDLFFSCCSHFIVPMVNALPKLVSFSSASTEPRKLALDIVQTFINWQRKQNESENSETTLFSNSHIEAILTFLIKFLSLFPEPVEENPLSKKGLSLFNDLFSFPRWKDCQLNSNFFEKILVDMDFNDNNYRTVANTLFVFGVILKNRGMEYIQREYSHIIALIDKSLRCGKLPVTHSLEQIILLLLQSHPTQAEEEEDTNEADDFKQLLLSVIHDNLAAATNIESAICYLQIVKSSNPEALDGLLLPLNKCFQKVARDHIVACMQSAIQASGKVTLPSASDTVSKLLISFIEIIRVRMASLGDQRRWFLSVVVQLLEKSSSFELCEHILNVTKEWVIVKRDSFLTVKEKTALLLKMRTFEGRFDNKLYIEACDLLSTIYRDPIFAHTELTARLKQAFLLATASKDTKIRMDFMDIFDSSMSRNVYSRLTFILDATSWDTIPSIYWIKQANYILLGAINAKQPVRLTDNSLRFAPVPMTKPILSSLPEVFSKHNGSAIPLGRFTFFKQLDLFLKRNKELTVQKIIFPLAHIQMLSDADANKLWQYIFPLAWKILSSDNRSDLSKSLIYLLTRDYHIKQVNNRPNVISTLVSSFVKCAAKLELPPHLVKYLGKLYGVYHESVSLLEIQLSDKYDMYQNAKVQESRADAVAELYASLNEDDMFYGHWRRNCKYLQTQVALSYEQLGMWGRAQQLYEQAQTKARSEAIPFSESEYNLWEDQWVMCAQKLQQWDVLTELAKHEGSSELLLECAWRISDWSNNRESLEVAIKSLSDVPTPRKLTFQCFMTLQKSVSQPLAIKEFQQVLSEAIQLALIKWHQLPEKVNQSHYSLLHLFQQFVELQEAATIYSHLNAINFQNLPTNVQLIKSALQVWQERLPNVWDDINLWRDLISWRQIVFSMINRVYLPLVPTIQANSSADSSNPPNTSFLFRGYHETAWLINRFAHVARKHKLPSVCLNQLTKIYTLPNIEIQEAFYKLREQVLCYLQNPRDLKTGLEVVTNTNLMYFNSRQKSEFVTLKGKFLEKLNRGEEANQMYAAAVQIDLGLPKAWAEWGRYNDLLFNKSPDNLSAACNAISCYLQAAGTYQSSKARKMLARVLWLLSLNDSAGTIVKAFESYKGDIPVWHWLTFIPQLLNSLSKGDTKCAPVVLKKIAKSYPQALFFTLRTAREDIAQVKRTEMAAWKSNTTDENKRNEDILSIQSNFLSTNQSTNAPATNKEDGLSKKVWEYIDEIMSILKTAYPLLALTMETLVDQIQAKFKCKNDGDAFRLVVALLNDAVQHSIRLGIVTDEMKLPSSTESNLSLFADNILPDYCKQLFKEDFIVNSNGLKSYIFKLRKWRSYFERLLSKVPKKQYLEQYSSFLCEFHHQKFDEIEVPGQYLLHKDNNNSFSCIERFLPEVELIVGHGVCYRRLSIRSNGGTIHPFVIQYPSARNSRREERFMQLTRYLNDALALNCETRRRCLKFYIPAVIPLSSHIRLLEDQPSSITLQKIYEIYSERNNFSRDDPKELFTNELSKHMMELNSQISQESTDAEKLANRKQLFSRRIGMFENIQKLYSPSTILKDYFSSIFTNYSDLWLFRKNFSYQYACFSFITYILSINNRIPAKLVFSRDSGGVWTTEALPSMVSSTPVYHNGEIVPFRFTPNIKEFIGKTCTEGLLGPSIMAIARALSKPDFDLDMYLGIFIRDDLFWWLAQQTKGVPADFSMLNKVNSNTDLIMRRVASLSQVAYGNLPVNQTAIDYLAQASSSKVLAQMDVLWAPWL
UniProt Q9C0X6: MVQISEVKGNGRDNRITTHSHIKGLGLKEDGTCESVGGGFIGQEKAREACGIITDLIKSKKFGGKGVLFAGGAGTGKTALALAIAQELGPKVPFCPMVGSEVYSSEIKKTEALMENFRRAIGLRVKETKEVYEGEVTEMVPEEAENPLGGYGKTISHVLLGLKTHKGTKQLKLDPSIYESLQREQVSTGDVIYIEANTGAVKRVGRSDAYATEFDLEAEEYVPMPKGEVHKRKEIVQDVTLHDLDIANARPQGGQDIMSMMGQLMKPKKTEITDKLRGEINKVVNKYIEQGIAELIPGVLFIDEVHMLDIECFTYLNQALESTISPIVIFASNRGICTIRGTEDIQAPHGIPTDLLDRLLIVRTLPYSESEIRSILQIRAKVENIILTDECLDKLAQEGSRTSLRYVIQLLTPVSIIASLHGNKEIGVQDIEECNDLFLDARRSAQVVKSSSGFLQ

In experiment [3] the target is T2, SWC4 (S. pombe) (S. pombe) (UniProt O14308).
T2 sequence: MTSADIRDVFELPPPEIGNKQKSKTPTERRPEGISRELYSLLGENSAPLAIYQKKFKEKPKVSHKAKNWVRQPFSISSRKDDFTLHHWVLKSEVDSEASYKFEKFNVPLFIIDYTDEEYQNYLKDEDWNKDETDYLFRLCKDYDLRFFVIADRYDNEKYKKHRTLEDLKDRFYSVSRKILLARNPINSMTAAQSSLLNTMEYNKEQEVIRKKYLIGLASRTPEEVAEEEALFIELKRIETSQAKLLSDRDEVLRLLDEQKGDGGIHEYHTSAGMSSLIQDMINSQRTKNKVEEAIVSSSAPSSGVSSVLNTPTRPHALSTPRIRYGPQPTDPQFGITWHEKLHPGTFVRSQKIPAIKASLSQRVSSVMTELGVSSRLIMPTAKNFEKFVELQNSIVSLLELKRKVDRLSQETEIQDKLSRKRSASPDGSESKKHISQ

The target of experiment [4] is RVB1 (S. pombe) (S. pombe) (UniProt Q9C0X6).

No constants are given. Whether binding was seen depends on the method and setting. Binding seen in cells or lysates may run through a third protein. These calls come from enrichment with a bait or labelling near it, and not all partners need be listed.

B1: TTI2 (S. pombe) (protein, UniProt O94729 1-467)
chain: MQYYKELARRLHTLQSKNEKEALEKQIDFLDKLVVEVDSLVHEQDLRPLLEFISPTESWFLLGTATIFYIKLLTHPDPESIDVVIKEAYVVRAHRILSIFQEQFIENVVKEINWEILAILISLSGIENGLVRNLSEFLSTSILSAVPRQKFLLYLLEKYQINLFHREERLTDQGRPVAFELPPDKFHSDQSKALLEPKWKTKNYLISHLIFWIIDQQSSSSIEVCWHRIIPSVLRILNDLSPNIKLQGIELVNRLLKITEREFLLYTGILKILKDDLLVFYTFIPPRFTIQTSVTLINASFATLVSLYPEENENLNSIMLNGINSVFQFAFDYPLILQAAFSQIMVLTDKMNVSYLPYLTLTLDELCRIIQNPQIIQIPSTLSFFLEILTKLLEIYSYRISAHHVELLMALVVCSRNYMRCNLQEHHNAIVQALQNLFTLIKLNITVEQLGDYNVILPLLEPLQIPL
Turning to B1, the binding entry in experiment [1] is given as “binds”.

B2: TTI1 (S. pombe) (protein, UniProt O94600 1-1098)
chain: MSHIQSIFAQIRDPFRKLSFYSLPLSSETSSVDSNGLKNSLKDAYFGLEKALTNTDADLPLNLCDYIFFPIVPVLKSWYRVPSTGVEYAIQCVNLLYKHGWREAHNEMLTMQLLLMLLNIADGWKSPSETVEQDFRVREITFETLENVITDFKPNFHDKRQYLLFARALSSALDIIPNKNSSRRLQFASLCCVQKLICPKQYRLPTEFLTTFLPGIVSGLTKGLAPNGTCQYFKNVCISLNILGDTVVKAISDDNTKDLPDEKDASSNSHFFGPTKRTKSWKRATCQQLSNAVKAILHLRSSQNLHVQDALFDFCFILFRDCLDSLKDCRIHLLESMLKLINKKENPKLRDYGMNKLVSLIESFNNITMESVLTECLNDWSTTWSSVSTFASEDNKLEELNRLKSLLSISSHLPKTLQLMEPLLDGILSQLVPKSSGIDSNSQKLLTSSTSNEYIHGEFFGGNEMERTTQEIVTSFAKAPNVKYVMQSLLSKATSATNENSVRAFWAFMVLLKSDVETVDSLEMYIDSLEQYSFEVLQQLSQLNVFTKASLEDKQKKEKYNLLCVRSCIAIDSISWISSLQGVKFRSKLMAYFYPLLEHLAFASPYVSSFAEACIQAIATNCNYSTPAELLRENIDYVVNSVALKLNTLDVSPQLPIVMAYVIKNDDGGCIRYIGDVVDAIFGILDAYHGYARLTEGLLGILYAIIKQESINGEEKKLIVGVEEDAMNEDKNKPCKKIREFVQLLLENPNYPLPKDDHELEDMIHDEQQETKSGHEQFREHAMKEKEKKGKENENMGETTVDHENINSNVMDEQGEKQKDDVVDMVRKITEKAQLFLSHEQITIRVEMLKLLSYGSNVLAKEPNTFYPAINTFWPLVVIQLDTDNELLVECALETIYQVCALADDFMTSRIRQDLLPRLETLCQRWHLFNVARTYSSEHRLQRAMLKVTSACVANKLSIVVYLKLMGITAPIIRAITHMSQKYAGDESLVEETWNAFSKQNPDAVYYEREVRGSQMIDTFSTELLIPGKQRVQRTYRRTHEVLEPVGAKTSETVFNDLLGQQGSGKTETQEEPLPSLDNLLHLNQPKKGAKKPLISII
On to B2, for which, in experiment [1], the binding result is “binds”.

B3: RVB2 (S. pombe) (protein, UniProt O94692 1-465)
chain: MSISVTSHNDVSKLERIGAHSHIKGIGLNDNLEPKESSQGMVGQVKARRAAGVILKMIQEGRIAGRAILMAGPPSTGKTAIAMGMAQSLGSDTPFVTLSASEVYSLEMSKTEALLQALRKSIGVRIKEETEIIEGEVVEVQIDRSITGGNKQGKLTIRSTDMETVYDLGTKMIDSLTKEKVLAGDVISIDKSVGRVTKLGRSFSRARDYDAMGADTRFVQCPQGEIQKRKEVVHTVSLHDIDVINSRTQGFLALFSGDTGEIKPEVREQINTKVSEWREEGKAEIVPGVLFVDEVHMLDIECFSFFNRALEDDLAPIVIMASNRGITRIRGTNYRSPHGIPVDLLDRMLIISTLPYSHEEVKEILKIRCQEEDVDMEPSALDYLSTIGQETSLRYALLLISSSNQVALKRKSATIEESDIRRVYELFLDQKRSVEYLEEYGKNYITENEWSASGAQDNAVAMQED
B3: the binding result in experiment [2], in experiment [3] and in experiment [1] was “binds” in each case.

B4: TEL2 (S. pombe) (protein, UniProt Q9P3W5 1-868)
chain: MKSFASELSKPIQKPRLKEILKELQHIGVPSPCNLRLYHELISVIVPTFWNGKINSEIDFLLAKCFSTLLGLKLLCVRLDNFVQEANLQNIHLVTVYLELLEKAFECIDLDDNCKLIWESTVLSDHQKQSLWTEFIFFLGNFKITNSMSAAMLTFKVYDDSKRLKASSMADYIGVLSSKLACIISKPAVKTPEIYSKLFHYLLHSSNLKAFINPLIPLTQKFCVQLQKLFADLTVSDQMLFLNQLLLEHNTKYPTNFSYSTARDDRITGSLATLLRLNFSSTHFLRLIEFYWGVPTNLIIKRVEVVCSSISYKESDKKELEKTVDSLFNIWSNAQFLRSYTLLAQESLTIYLLLFIPKLEAKYLNNLSKSLMFSNAISCRLDSLDDDIRMHGMIMAEVISTYSGVSLSNPLAFDVPIMKTTKAKVLKSLSSLKDEFLPIEILNDESVIAETSIEKEETNVTHLEKPVISKNDDLIRGDDLEPYDFPDIDSEDTDDDPTVSRSKTHSPVYVQDLCKMLKDTESFEKQRVALENASKLIKRKSAFGTELRDHADELLQTLISLQNRFDLMNFDEMQMTAIVELLLTCLDICGPVICTNLFVSDYSMRQKILILSCISLAASKFNDDDNERLFPSQLLPGNLHDQFYSPTIEKISDELERKLVFPVMSECKDYAEGPKFLQTRYISKQSEIESKKPLPKANRLSLKVDKSLFLLLTSGYMLASRKTAFIEPLFLVYYLKTLGILFFETFTSKIEGANRMLREYVDVLNEVCRLRSDTPEVNEGLLFSFLAILEISSGRTLANEFGKHLLFFEAYTKFLFESPDQGEKVKSLSAAVLILFENKLSEFRTLALEKLLDDSAPLVPERFGLAGL
In the case of B4, the binding result in experiment [1] is on record as “binds”.

B5: ASA1 (S. pombe) (protein, UniProt Q9UTR9 1-368)
chain: MVVPTPFYVLRGHSSSVTSVLFDANEYLYSGDEAGFVICWCLTSMRPKCAWRAHTKTILGMQIVKGGALCTHGRDCRLVTWKIDFNCMTDNFMSLSKLAELQNYGPEASSETEKSSAFISIHSNIVVNSLTFCPFSYSPQSKIVVLCNTLNFEELDVYDDESLYHPQTHKEDCGKRLQTRIQPEESVGKTGSVMSTSVTVTDEKYVLLAAGYESGHVVQYICSLENVKTVTLDFKAVWKMVYAYKSHSQPVLSVEYAGSKLFSTGADDCICLHPTPSSIADDLGSLPHPIFRKTKHCGQQNIRIRSDNKILATAGWDGRGRVYSCQTLAPLAVLKYHSDGINSLAFHPGSNVIALASKDTRISLWKLY
Consider B5, for which the binding result in experiment [4] and in experiment [1] was “binds” in each case.

Source of the values: article PMC2614481.
